Measurements published in paper PMC5861360.

B1: V5-tagged EcR-A (receptor, UniProt P34021-2 1-849)
chain: MLTTSGQQQSKQKLSTLPSHILLQQQLAASAGPSSSVSLSPSSSAALTLHVASANGGARETTSAAAVKDKLRPTPTAIKIEPMPDVISVGTVAGGSSVATVVAPAATTTSNKPNSTAAPSTSAAAANGHLVLVPNKRPRLDVTEDWMSTPSPGSVPSSAPPLSPSPGSQNHSYNMSNGYASPMSAGSYDPYSPTGKTGRDDLSPSSSLNGYSANESCDAKKSKKGPAPRVQEELCLVCGDRASGYHYNALTCEGCKGFFRRSVTKSAVYCCKFGRACEMDMYMRRKCQECRLKKCLAVGMRPECVVPENQCAMKRREKKAQKEKDKMTTSPSSQHGGNGSLASGGGQDFVKKEILDLMTCEPPQHATIPLLPDEILAKCQARNIPSLTYNQLAVIYKLIWYQDGYEQPSEEDLRRIMSQPDENESQTDVSFRHITEITILTVQLIVEFAKGLPAFTKIPQEDQITLLKACSSEVMMLRMARRYDHSSDSIFFANNRSYTRDSYKMAGMADNIEDLLHFCRQMFSMKVDNVEYALLTAIVIFSDRPGLEKAQLVEAIQSYYIDTLRIYILNRHCGDSMSLVFYAKLLSILTELRTLGNQNAEMCFSLKLKNRKLPKFLEEIWDVHAIPPSVQSHLQITQEENERLERAERMRASVGGAITAGIDCDSASTSAAAAAAQHQPQPQPQPQPSSLTQNDSQHQTQPQLQPQLPPQLQGQLQPQLQPQLQTQLQPQIQPQPQLLPVSAPVPASVTAPGSLSAVSTSSEYMGGSAAIGPITPATTSSITAAVTASSTTSAVPMGNGVGVGVGVGGNVSMYANAQTAMALMGVALHSHQEQLIGGVAVKSEHSTTA
B2: V5-tagged Usp (Ultraspiracle) (receptor, UniProt P20153 1-508)
chain: MDNCDQDASFRLSHIKEEVKPDISQLNDSNNSSFSPKAESPVPFMQAMSMVHVLPGSNSASSNNNSAGDAQMAQAPNSAGGSAAAAVQQQYPPNHPLSGSKHLCSICGDRASGKHYGVYSCEGCKGFFKRTVRKDLTYACRENRNCIIDKRQRNRCQYCRYQKCLTCGMKREAVQEERQRGARNAAGRLSASGGGSSGPGSVGGSSSQGGGGGGGVSGGMGSGNGSDDFMTNSVSRDFSIERIIEAEQRAETQCGDRALTFLRVGPYSTVQPDYKGAVSALCQVVNKQLFQMVEYARMMPHFAQVPLDDQVILLKAAWIELLIANVAWCSIVSLDDGGAGGGGGGLGHDGSFERRSPGLQPQQLFLNQSFSYHRNSAIKAGVSAIFDRILSELSVKMKRLNLDRRELSCLKAIILYNPDIRGIKSRAEIEMCREKVYACLDEHCRLEHPGDDGRFAQLLLRLPALRSISLKCQDHLFLFRITSDRPLEELFLEQLEAPPPPGLAMKLE

Target: Flag-tagged FruBM (Drosophila melanogaster)
Experiment: co-IP; lysates of S2 cells cotransfected with Flag-FruBM and one V5-tagged protein; precipitated with rabbit anti-Flag antibody (3 h, 4°C) and Dynabeads Protein G; lysis buffer 50 mM HEPES pH 7.5, 100 mM NaCl, 50 mM ZnSO4, 10 mM NaF, 0.2% NP40; western blot with anti-V5

binding	Binder
binds	B1
binds	B2

No constants are given. Whether binding was seen depends on the method and setting. Binding seen in cells or lysates may run through a third protein. Binding calls can cover weak binding; strength is not graded here. Where a sequence is shown, tags or fusion partners need not be part of it.
